Source: article PMC12337393
Results are given in words; binding and its absence hold for the method and conditions named. Binding seen in cells or lysates may run through a third protein. A yes stands for co-enrichment or nearness to the bait. Other partners may have been found.

Chains of the proteins cited; added tags and fusions are not shown.
UniProt P11142: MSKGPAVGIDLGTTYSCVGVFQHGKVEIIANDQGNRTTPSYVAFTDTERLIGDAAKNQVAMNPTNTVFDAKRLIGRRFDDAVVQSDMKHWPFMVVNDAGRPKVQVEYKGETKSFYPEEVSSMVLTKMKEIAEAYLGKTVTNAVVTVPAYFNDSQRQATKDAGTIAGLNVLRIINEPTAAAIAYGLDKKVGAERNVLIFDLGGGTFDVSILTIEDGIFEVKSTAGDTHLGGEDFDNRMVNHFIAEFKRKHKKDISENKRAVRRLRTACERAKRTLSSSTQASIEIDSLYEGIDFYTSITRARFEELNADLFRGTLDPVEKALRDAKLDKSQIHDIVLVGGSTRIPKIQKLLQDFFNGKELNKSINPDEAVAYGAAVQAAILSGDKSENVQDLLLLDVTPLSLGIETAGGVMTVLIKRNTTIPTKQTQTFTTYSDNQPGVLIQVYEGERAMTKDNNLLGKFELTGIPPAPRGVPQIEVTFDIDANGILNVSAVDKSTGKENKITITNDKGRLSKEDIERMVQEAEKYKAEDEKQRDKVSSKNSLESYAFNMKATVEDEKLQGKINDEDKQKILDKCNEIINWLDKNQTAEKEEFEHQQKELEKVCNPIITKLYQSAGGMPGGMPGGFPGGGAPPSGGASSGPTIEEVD

Target: AURKB, bait of the IP-MS in 293T cells (UniProt Q96GD4)
Assay: affinity purification with mass spectrometry; immunoprecipitation of AURKB from 293T cell lysate (Pierce IP Lysis Buffer, Protein A/G agarose beads), beads sent for mass spectrometry; antibody not stated

Molecule	binding
HNRNPK (from UniProt P61978 1-463)	binds
HSPA8 (from UniProt P11142 1-646)	binds
Heterogeneous nuclear ribonucleoprotein M (HNRNPM), endogenous (protein, UniProt P52272 1-730) MAAGVEAAAEVAATEIKMEEESGAPGVPSGNGAPGPKGEGERPAQNEKRKEKNIKRGGNRFEPYANPTKRYRAFITNIPFDVKWQSLKDLVKEKVGEVTYVELLMDAEGKSRGCAVVEFKMEESMKKAAEVLNKHSLSGRPLKVKEDPDGEHARRAMQKVMATTGGMGMGPGGPGMITIPPSILNNPNIPNEIIHALQAGRLGSTVFVANLDYKVGWKKLKEVFSMAGVVVRADILEDKDGKSRGIGTVTFEQSIEAVQAISMFNGQLLFDRPMHVKMDERALPKGDFFPPERPQQLPHGLGGIGMGLGPGGQPIDANHLNKGIGMGNIGPAGMGMEGIGFGINKMGGMEGPFGGGMENMGRFGSGMNMGRINEILSNALKRGEIIAKQGGGGGGGSVPGIERMGPGIDRLGGAGMERMGAGLGHGMDRVGSEIERMGLVMDRMGSVERMGSGIERMGPLGLDHMASSIERMGQTMERIGSGVERMGAGMGFGLERMAAPIDRVGQTIERMGSGVERMGPAIERMGLSMERMVPAGMGAGLERMGPVMDRMATGLERMGANNLERMGLERMGANSLERMGLERMGANSLERMGPAMGPALGAGIERMGLAMGGGGGASFDRAIEMERGNFGGSFAGSFGGAGGHAPGVARKACQIFVRNLPFDFTWKMLKDKFNECGHVLYADIKMENGKSKGCGVVKFESPEVAERACRMMNGMKLSGREIDVRIDRNA	binds
